Sequences of proteins named here, by UniProt entry; tags and fusion partners are left off.
UniProt Q9BYX4: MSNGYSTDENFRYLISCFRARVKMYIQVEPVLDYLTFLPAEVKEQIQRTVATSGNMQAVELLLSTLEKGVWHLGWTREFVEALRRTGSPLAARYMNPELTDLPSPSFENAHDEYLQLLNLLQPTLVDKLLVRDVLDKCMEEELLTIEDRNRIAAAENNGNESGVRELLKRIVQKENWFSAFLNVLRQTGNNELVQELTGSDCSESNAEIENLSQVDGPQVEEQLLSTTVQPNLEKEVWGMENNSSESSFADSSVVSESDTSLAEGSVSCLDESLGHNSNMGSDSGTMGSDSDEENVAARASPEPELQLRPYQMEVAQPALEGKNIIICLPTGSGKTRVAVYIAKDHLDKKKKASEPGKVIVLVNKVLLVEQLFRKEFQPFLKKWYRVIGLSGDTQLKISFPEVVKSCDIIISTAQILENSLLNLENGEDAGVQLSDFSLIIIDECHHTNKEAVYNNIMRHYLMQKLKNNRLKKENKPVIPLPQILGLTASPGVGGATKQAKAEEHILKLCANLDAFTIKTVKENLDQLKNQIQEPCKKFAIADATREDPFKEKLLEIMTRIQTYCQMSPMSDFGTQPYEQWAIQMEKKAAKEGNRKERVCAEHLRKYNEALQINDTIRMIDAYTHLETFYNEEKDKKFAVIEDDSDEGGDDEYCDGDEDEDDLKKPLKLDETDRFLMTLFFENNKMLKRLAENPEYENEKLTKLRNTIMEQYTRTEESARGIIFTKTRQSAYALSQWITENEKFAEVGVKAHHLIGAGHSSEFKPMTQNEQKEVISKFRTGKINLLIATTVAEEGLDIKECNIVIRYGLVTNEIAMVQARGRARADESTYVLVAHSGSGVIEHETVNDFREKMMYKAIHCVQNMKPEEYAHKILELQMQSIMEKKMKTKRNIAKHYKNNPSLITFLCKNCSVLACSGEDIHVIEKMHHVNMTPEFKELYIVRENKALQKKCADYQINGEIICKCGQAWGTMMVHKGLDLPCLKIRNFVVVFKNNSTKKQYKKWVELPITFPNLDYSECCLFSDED
UniProt P07355: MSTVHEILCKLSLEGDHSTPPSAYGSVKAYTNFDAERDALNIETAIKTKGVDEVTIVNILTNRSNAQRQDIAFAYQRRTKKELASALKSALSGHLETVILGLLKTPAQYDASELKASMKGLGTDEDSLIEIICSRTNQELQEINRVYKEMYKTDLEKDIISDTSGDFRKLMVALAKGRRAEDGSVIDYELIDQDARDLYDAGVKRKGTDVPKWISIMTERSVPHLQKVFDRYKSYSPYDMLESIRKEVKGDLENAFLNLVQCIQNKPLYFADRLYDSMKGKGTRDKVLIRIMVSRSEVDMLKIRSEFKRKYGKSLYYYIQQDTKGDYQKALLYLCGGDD

According to publication doi:10.1101/2025.10.28.684968:

Biological target: Melanoma differentiation-associated protein 5 (MDA5), endogenous in THP1 cells (human (endogenous in THP1)) (UniProt Q9BYX4)
Assay: affinity purification with mass spectrometry

**Q.** “Annexin A2 (ANXA2), endogenous in THP1 cells (from UniProt P07355 1-339)” was tested. Which binding did it give?
**A.** The binding was “binds”.

No constants are given. Whether binding was seen depends on the method and setting. Binding seen in cells or lysates may run through a third protein. These calls come from enrichment with a bait or labelling near it, and not all partners need be listed.
